Conjugation yield data for one substance are collected here from US20240181089A1 (priority 2021, published 2024).

A short description of this data set: general procedure: peptide synthesis; EDC-HCl/NHS, DIPEA. The following applies: conjugation step.

As to Boc-NH-PEG4-cRGDfK, the conjugation yield is listed as 80%.
